# Measurements taken from patent publication US8501779B2, “Polymorphs of donepezil salts, preparation methods and uses thereof” (priority 2007, dated 2013).
# Conditions: description of the taste in words
row,Compound,Taste Test Results: Description
1,Donepezil Citrate [Example 95],"sour, highly-bitter"
2,"CC(=O)Oc1ccccc1C(=O)O.COc1cc2c(cc1OC)C(=O)C(CC1CCN(Cc3ccccc3)CC1)C2 (stereo not drawn) [Example 92, Donepezil Acetylsalicylate]",non-bitter
3,Donepezil Acetate [Example 100],highly-bitter
4,Donepezil Formate [Example 97],highly-bitter
5,"C/C=C/C=C/C(=O)O.COc1cc2c(cc1OC)C(=O)C(CC1CCN(Cc3ccccc3)CC1)C2 (stereo not drawn) [Example 102, Donepezil Sorbate]",highly-bitter
6,"COc1cc2c(cc1OC)C(=O)C(CC1CCN(Cc3ccccc3)CC1)C2.O=C(O)c1cc(O)c(O)c(O)c1 (stereo not drawn) [Example 98, Donepezil Gallate]",non-bitter
